Measurements reported in US6605431.
Construct, isoform or probe ends are uncertain for at least one entry. For part of these data: Negatives hold for the conditions tested.

Legend:
[1] = tested on: RNA polymerase holoenzyme alphaDelta235 (lacks alphaCTD) (Escherichia coli); assay: activity assay; conditions: no UP stimulation; purified recombinant protein; protein details: reconstituted; label: 32P
[2] = tested on: RNA polymerase (in-cell) (Escherichia coli); assay: activity in cells; conditions: protein in cells
[3] = tested on: RNA polymerase holoenzyme (sigma70) (Escherichia coli); assay: SELEX; conditions: purified native protein
[4] = vs lac core, only the site is given
[5] = in vivo more active than wild type

Q: Which “activity on this sequence” value [1] does the source give for “GACGTCAGGAATTCCGCGGTCGGAAAATTTTTTTTCAAAAGTACTTGTCAGGCCGGAATAACTCCCTATAATGCGCCACC (double strand) [rrnB P1 with UP element 4192]” here?
A: Its value is “not active”.

Q: What about the activity on this sequence ([2]; lacZ fusion vs core promoter) of the same sequence?
A: Its activity on this sequence is 326 fold.

Q: With “GACGTCAGGAATTCCGCGGTCGGAAAATTTTTTTAAAAAAAGACTTGTCAGGCCGGAATAACTCCCTATAATGCGCCACC (double strand) [rrnB P1 with combined UP element 4541]” as the sequence, how does the activity on this sequence ([2]; lacZ fusion) read?
A: Its activity on this sequence is 340 fold.

Q: Which “activity on this sequence” value [1] does the source give for “GACCTCAGGAATTCCGCGGTCGACTGCAGTGGTAAAAAAAGTACTTGTCAGGCCGGAATAACTCCCTATAATGCGCCACC (double strand) [rrnB P1 with 4547 proximal subsite]” here?
A: Its value is “not active”.

Q: With “GACGTCAGGAATTCCGCGGTCAGAAAATTATTTTACTAGGAATCTTGTCAGGCCGGAATAACTCCCTATAATGCGCCACC (double strand) [rrnB P1 distal subsite only]” as the sequence, how does the activity on this sequence ([2]; lacZ fusion, variant of rrnB P1 wild type UP element) read?
A: The activity on this sequence was 9 fold.

Q: For “GACGTCAGGAATTCCGCGGTCGGAAAATTTTTTTTCTAGGAATCTTGTCAGGCCGGAATAACTCCCTATAATGCGCCACC (double strand) [rrnB P1 with 4513 distal subsite]”, which “activity on this sequence” value [1] is on record?
A: Its value is “not active”.

Q: And the activity on this sequence ([2]; lacZ fusion)?
A: The activity on this sequence was 16 fold.

Q: With “GACGTCAGGAATTCCGCGGTCAGAAAATTATTTTAAATTTCCTCTTGTCAGGCCGGAATAACTCCCTATAATGCGCCACC (double strand) [rrnB P1 wild type UP element]” as the sequence, how does the “activity on this sequence” value [1] read?
A: The value was “not active”.

Q: And the activity on this sequence ([2]; lacZ fusion vs no UP)?
A: Its activity on this sequence is 69 fold.

Q: With “AGAAAATTATTTTAAATTTCCT (double strand) [rrnB P1-lac hybrid promoter]” as the sequence, how does the activity on this sequence [2, 4] read?
A: Its activity on this sequence is 39 fold.

Q: With “GACGTCAGGAATTCCGCGGTCGACTGCAGTGGTACCTAGGAATCTTGTCAGGCCGGAATAACTCCCTATAATGCGCCACC (double strand) [rrnB P1 core, no UP element]” as the sequence, how does the activity on this sequence ([2]; reference core promoter lacking UP element, variant of rrnB P1 wild type UP element) read?
A: The activity on this sequence was 1 fold.

Q: “GACCTCAGGAATTCCGCGGTCGACTGCAGTGGTAAAAAAAGTGCTTGTCAGGCCGGAATAACTCCCTATAATGCGCCACC (double strand) [selected proximal SEQ 33]” was tested. Which selection result ([3]; 13 rounds) did it give?
A: Its selection result is “selected”.

Q: “GACGTCAGGAATTCCGCGGTCGCAAAATTATTTTGCTAAAGTACTTGTCAGGCCGGAATAACTCCCTATAATGCGCCACC (double strand) [selected UP SEQ 69]” was tested. Which selection result [3, 5] did it give?
A: The selection result was “selected”.

Q: For “GGAAAATTTTTTTTCAAAAGTA (double strand) [4192-lac hybrid promoter]”, which activity on this sequence [2, 4] is on record?
A: The activity on this sequence was 108 fold.

Q: For “GACGTCAGGAATTCCGCGGTCACAAAAATATTTTTCAAAACCCCTTGTCAGGCCGGAATAACTCCCTATAATGCGCCACC (double strand) [selected UP SEQ 48]”, which selection result [3, 5] is on record?
A: The selection result was “selected”.

Q: Which selection result ([3]; 13 rounds) does the source give for “GACCTCAGGAATTCCGCGGTCGACTGCAGTGGTAAAAAAAACACTTGTCAGGCCGGAATAACTCCCTATAATGCGCCACC (double strand) [selected proximal SEQ 30]” here?
A: Its selection result is “selected”.

Q: How did the selection result [3, 5] turn out when “GACGTCAGGAATTCCGCGGTCACAAAAATATTTTTCGAAACCCCTTGTCAGGCCGGAATAACTCCCTATAATGCGCCACC (double strand) [selected UP SEQ 55]” was run?
A: The selection result was “selected”.

Q: With “GACGTCAGGAATTCCGCGGTCTAAATTTTTTTTTTCTAGGAATCTTGTCAGGCCGGAATAACTCCCTATAATGCGCCACC (double strand) [selected distal SEQ 16]” as the sequence, how does the selection result [3] read?
A: The selection result was “selected”.

Q: “GACGTCAGGAATTCCGCGGTCTGTAATAATTTTTACTAGGAATCTTGTCAGGCCGGAATAACTCCCTATAATGCGCCACC (double strand) [selected distal SEQ 24]” was tested. Which selection result [3] did it give?
A: Its selection result is “selected”.

Q: For “GACGTCAGGAATTCCGCGGTCCAAATTTTTTTTTGCTAAACCCCTTGTCAGGCCGGAATAACTCCCTATAATGCGCCACC (double strand) [selected UP SEQ 52]”, which selection result [3, 5] is on record?
A: Its selection result is “selected”.

Q: Which selection result [3, 5] does the source give for “GACGTCAGGAATTCCGCGGTCAGAAAAATATTTTTGAAAACTACTTGTCAGGCCGGAATAACTCCCTATAATGCGCCACC (double strand) [selected UP SEQ 58]” here?
A: The selection result was “selected”.
